Laboratory results published in paper PMC12700825.
These are yes or no findings as the source states them, for the method shown. Binding seen in cells or lysates may run through a third protein. Some results given as binding are weak or reduced against the parent protein; the word gives no strength.

Chains of the proteins cited; added tags and fusions are not shown.
UniProt P63073: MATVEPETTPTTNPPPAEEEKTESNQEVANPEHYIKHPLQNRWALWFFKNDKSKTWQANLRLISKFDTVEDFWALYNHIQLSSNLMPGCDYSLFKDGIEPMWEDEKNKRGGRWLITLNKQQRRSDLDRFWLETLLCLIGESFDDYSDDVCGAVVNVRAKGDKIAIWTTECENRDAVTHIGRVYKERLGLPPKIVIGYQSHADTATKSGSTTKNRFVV
UniProt Q7TMB8: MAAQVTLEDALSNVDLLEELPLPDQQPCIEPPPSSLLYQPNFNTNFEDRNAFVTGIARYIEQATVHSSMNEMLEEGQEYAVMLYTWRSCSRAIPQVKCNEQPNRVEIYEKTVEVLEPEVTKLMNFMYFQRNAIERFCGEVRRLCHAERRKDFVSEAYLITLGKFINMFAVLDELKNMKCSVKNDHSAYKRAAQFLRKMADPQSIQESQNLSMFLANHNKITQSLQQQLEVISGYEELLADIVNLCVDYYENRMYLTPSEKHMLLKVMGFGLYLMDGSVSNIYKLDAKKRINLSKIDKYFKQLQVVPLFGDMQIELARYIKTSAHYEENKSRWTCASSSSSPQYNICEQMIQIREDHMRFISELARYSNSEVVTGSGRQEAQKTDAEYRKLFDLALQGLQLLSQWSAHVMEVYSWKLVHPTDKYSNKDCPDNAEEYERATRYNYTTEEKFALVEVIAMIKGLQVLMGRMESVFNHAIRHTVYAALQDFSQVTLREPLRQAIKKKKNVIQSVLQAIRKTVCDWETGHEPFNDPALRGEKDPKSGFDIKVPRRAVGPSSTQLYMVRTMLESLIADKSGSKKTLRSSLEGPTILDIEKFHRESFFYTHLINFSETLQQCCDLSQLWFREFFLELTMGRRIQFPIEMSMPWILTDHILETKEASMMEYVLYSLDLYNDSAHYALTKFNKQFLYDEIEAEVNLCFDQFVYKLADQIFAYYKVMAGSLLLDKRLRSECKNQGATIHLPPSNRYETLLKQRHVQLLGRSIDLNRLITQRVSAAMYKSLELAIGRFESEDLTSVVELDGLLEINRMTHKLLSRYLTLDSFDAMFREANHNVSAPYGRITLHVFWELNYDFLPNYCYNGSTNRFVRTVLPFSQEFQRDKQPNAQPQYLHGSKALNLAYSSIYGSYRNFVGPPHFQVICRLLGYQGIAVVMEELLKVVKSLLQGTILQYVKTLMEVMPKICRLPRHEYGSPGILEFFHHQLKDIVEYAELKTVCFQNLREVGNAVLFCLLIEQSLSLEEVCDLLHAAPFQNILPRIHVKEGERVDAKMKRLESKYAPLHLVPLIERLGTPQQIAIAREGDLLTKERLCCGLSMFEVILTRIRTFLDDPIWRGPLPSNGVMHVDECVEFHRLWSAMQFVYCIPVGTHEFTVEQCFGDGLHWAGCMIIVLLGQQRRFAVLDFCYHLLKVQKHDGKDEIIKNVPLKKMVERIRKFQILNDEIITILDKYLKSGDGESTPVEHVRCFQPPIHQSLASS

Assays:
[1] = target: eukaryotic initiation factor 4E (eIF4E) (mouse (endogenous in hippocampus and primary hippocampal neurons)) (UniProt P63073); experiment: co-IP; lysates of hippocampal tissue of WT and Fmr1 KO mice (vehicle or Rilmenidine) precipitated with an anti-eIF4E antibody overnight at 4 °C, Protein A/G agarose; blots for eIF4E, eIF4G1 and CYFIP1; naive IgG as negative control
[2] = target: eukaryotic initiation factor 4E (eIF4E) (mouse (endogenous in hippocampus and primary hippocampal neurons)) (UniProt P63073); experiment: co-IP; lysates of primary hippocampal neurons with Eif4g1 shRNA or control shRNA precipitated with an anti-eIF4E antibody; blots for eIF4G1 and CYFIP1 (Supplemental Fig. 15)

binding [1]: binds
binding [2]: binds
Substance: cytoplasmic FMRP-interacting protein 1 (CYFIP1) (from UniProt Q7TMB8 1-1253)
